Test results reported in PubChem BioAssay AID2685 (National Center for Advancing Translational Sciences (NCATS), 2010).
The other results are listed elsewhere or left out. Shown are side measurements of this screen, not its main read-out; they come without a call. Most of these compounds were active or inconclusive in the main read-out, so they are no random draw. Words in brackets tell the shape of the fitted curve; partial curves, single points and poor fits give uncertain potencies.

Assay: qHTS Assay for Lipid Storage Modulators in Drosophila S3 Cells;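 for cell number change: cells counted by Cell Tracker Red CMTPX staining in the red channel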
Conditions: BODIPY lipid droplet fluorescence, 18-24 h; for cell number change: measured here: cell count max response, cells fed with added oleic acid
How it was run: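 Laser-scanning cytometry quantifies lipid droplet accumulation (500–530 nm total intensity; droplet/cell object ratio) in oleic acid-fed (400 uM added) Drosophila S3 cells treated with a concentration series. 20 uM Triacsin C defined 100% inhibition.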

[1] = measured here: lipid fluorescence (Fed channel) AC50, cells fed with added oleic acid
[2] = measured here: cell number channel AC50, cells fed with added oleic acid

CN(C)c1ccc(NC(=S)NC(=O)/C=C/c2ccc(Cl)cc2)cc1
AC50 [1]: 6.51 µM [rising, single point]

O=C(CCS(=O)(=O)c1cccs1)Nc1ccc(C(=O)NCc2ccccc2)cc1
AC50 [2]: 1.84 µM [rising, partial curve]

O=C(N/N=C/c1ccccn1)c1cc(-c2ccccc2Cl)n[nH]1
AC50 [1]: 23.1 µM [falling, partial curve]

CCCCCCOc1ccc(C(CC(N)=O)C(=O)O)cc1 (configuration not stated)
cell number change: -19.2%

CC(C)(C)c1ccc(OCc2ccc(C(=O)Nc3cccnc3)o2)cc1
cell number change: -22.2%

Cc1nc(S(=O)(=O)N(C)c2ccccc2)c(C#N)c(C)c1Cl
cell number change: -15.2% | AC50 [1]: 16.4 µM [falling, partial curve]

N#C/C(=C\c1cccc(Oc2ccccc2)c1)C(=O)N1CCOCC1
cell number change: -33.8% | AC50 [2]: 0.82 µM [falling, partial curve, poor fit]

O=c1c(Sc2ccccc2)c(C(F)(F)F)[nH]n1-c1ccccc1
cell number change: -5.22%

COc1cccc(C(=O)Nc2ccc3nc(N4CCN(c5ncccn5)CC4)cc(C)c3c2)c1OC
cell number change: 38.6% | AC50 [2]: 29.1 µM [rising, single point] | AC50 [1]: 29.1 µM [rising, single point]

COc1ccc(CN(C)C(=O)C2CSC3(C)CCC(=O)N23)cc1OC (configuration not stated)
cell number change: -32.8% | AC50 [2]: 29.1 µM [falling, single point] | AC50 [1]: 18.4 µM [falling, single point]

CCOc1ccc(C(=O)NC(=S)Nc2ccccn2)cc1[N+](=O)[O-]
AC50 [1]: 0.231 µM [rising, full curve, poor fit]

O=C(CCCn1c(=O)[nH]c2ccccc2c1=O)N1CCN(c2ccccn2)CC1
cell number change: 15.8% | AC50 [1]: 6.51 µM [rising, single point]

Cc1nc(N)nc2c1CCCC2
cell number change: 9.69% | AC50 [1]: 25.9 µM [falling, partial curve]

CC1CC(C)CN(C(=O)CN2C(=O)NC(C)(C)C2=O)C1 (configuration not stated)
cell number change: 100% | AC50 [2]: 29.1 µM [rising, single point] | AC50 [1]: 10.3 µM [rising, partial curve]

Cc1cc2ncc(C(=O)Nc3ccccc3)c(C)n2n1
cell number change: -61% | AC50 [2]: 8.2 µM [falling, partial curve, poor fit] | AC50 [1]: 18.4 µM [falling, partial curve]

CCC1CCCCN1Cc1cc(OC)c(O)c([N+](=O)[O-])c1 (configuration not stated)
cell number change: -88.3% | AC50 [2]: 11.6 µM [falling, partial curve]

O=C(Nc1nnc(SCC(=O)N2CCCCC2)s1)c1ccc(F)cc1F
cell number change: 1.28% | AC50 [1]: 0.461 µM [rising, single point]

CCOc1ccc(/C=C/C(=O)c2cc(Br)ccc(=O)c2O)cc1
cell number change: -51.8% | AC50 [2]: 20.6 µM [falling, single point]

Cc1ccc(NC(=O)c2cc3c(s2)CCC3)cc1S(=O)(=O)N1CCOCC1
cell number change: 10.9% | AC50 [1]: 3.66 µM [rising, partial curve]

NC(=O)COC(=O)c1ccccc1OCc1ccccc1Cl
cell number change: 63.1% | AC50 [1]: 0.58 µM [rising, full curve, poor fit]

COc1ccc(S(=O)(=O)N2CCCCCC2)cc1C(=O)NCc1ccccc1Cl
cell number change: 68.4% | AC50 [2]: 29.1 µM [rising, single point]

Cc1cc(C)cc(N(C(=O)c2csnn2)C(C(=O)NC2CCCCC2)c2ccccn2)c1 (configuration not stated)
cell number change: 23.1%

COc1ccc(C2C(C(=O)N3CCN(C)CC3)c3cc(OC)c(OC)cc3C(=O)N2C)cc1 (configuration not stated)
AC50 [1]: 2.31 µM [falling, single point]

Cc1ccc(NS(=O)(=O)c2ccc(NC(=O)C3CC3)cc2)cc1C
cell number change: -51.7% | AC50 [2]: 32.6 µM [falling, partial curve]

O=[N+]([O-])c1ccccc1/C=C/C=N/n1c(-c2cc(-c3ccccc3)n[nH]2)n[nH]c1=S
cell number change: -64.2% | AC50 [2]: 16.4 µM [falling, partial curve] | AC50 [1]: 20.6 µM [falling, partial curve, poor fit]

COC(=O)c1ccccc1NC(=O)Cn1nc2n(C)c3ccccc3n2c(=O)c1=O
cell number change: 12.6% | AC50 [1]: 0.651 µM [rising, single point]

Cc1ccc(Nc2cc(C)nc(N3CCOCC3)n2)c(C)c1
cell number change: -3.43% | AC50 [1]: 2.06 µM [rising, full curve]

CN(CCC#N)C(=O)COC(=O)c1ccc(Cl)cc1O
cell number change: -41.7% | AC50 [2]: 1.03 µM [falling, full curve]

O=S(=O)(Nc1cccc(-c2ccc(N3CCOCC3)nn2)c1)c1cc(Cl)ccc1Cl
cell number change: 33% | AC50 [2]: 9.2 µM [rising, partial curve, poor fit] | AC50 [1]: 0.411 µM [rising, full curve, poor fit]

COC(=O)N/N=C/c1cc(OC)c(O)c([N+](=O)[O-])c1
cell number change: -41.4% | AC50 [2]: 4.61 µM [falling, full curve] | AC50 [1]: 0.259 µM [falling, full curve]

CCn1cc(C(=O)N2CC(C)CC(C)C2)c(=O)c2cc(S(=O)(=O)N3CCCC3)ccc21 (configuration not stated)
cell number change: 1.83%

CCOC(=O)C1CCN(C(=O)CC2(CC(=O)O)CCCC2)CC1
cell number change: 6.41% | AC50 [1]: 29.1 µM [rising, single point]

O=C(NCCc1ccc(F)cc1)N[C@@H](Cc1ccccc1)C(=O)O
cell number change: -4.96%

CCC(=O)Nc1ccccc1C(=O)N1CCOCC1
cell number change: 1.62% | AC50 [1]: 0.517 µM [falling, full curve, poor fit]

N#Cc1c(N)nc2c(c1N)CC(COc1ccccc1)O2 (configuration not stated)
cell number change: -23.2%

O=C1CC(c2cccs2)CC2=C1C(c1ccccc1)n1ncnc1N2 (configuration not stated)
cell number change: 3.99% | AC50 [1]: 6.51 µM [falling, single point]

COc1ccc(NC(=O)CSc2nnc(-c3ccccc3)n2Cc2ccco2)cc1OC
cell number change: -4.83%

COc1ccc(C)cc1NS(=O)(=O)c1ccc(-c2cnc(C3CC3)o2)cc1
cell number change: -35.4% | AC50 [2]: 4.11 µM [falling, full curve, poor fit]

COc1ccc(-c2cc(C3CCN(c4ccc(C(C)=O)cc4[N+](=O)[O-])CC3)[nH]n2)cc1
cell number change: -23.6% | AC50 [1]: 16.4 µM [falling, single point]

O=C(c1cc(-c2ccccc2Cl)nc2ccccc12)N1CCN(c2ccccc2O)CC1
cell number change: 55.8% | AC50 [2]: 18.4 µM [rising, single point]

Cc1cc(S(=O)(=O)NCc2ccc3c(c2)OCO3)ccc1F
cell number change: 10.5%

CNC(=S)N/N=C(\C)c1ccc(C)c(C)c1
cell number change: -1.88% | AC50 [1]: 0.92 µM [falling, partial curve, poor fit]

O=C(N1CCOCC1)N1CCN(S(=O)(=O)c2ccccc2)C1
cell number change: -7% | AC50 [1]: 1.3 µM [falling, full curve, poor fit]

CCOc1cc(N2CCOCC2)c(OCC)cc1NC(=O)COC(=O)c1cccc2ccccc12
cell number change: 8.76% | AC50 [2]: 0.82 µM [falling, single point] | AC50 [1]: 1.16 µM [falling, single point]

COc1cc(OC)cc(C(=O)NCC(=O)N2CCN(c3ccc(O)cc3)CC2)c1
cell number change: 30.2% | AC50 [2]: 6.51 µM [rising, full curve, poor fit]

CCOC(=O)Nc1ccc2nc3n(c(=O)c2c1)CCCCC3
cell number change: -109% | AC50 [2]: 29.1 µM [falling, single point] | AC50 [1]: 29.1 µM [falling, single point]

CN1/C(=C\C(=O)COC(=O)CNC(=O)c2ccc3ccccc3c2)C(C)(C)c2ccccc21
cell number change: 2.99% | AC50 [1]: 23.1 µM [falling, single point]

Cc1nc([N+](=O)[O-])c(Sc2nc3ccccc3n2C)n1Cc1ccccc1
cell number change: -10.4% | AC50 [1]: 0.206 µM [falling, full curve, poor fit]

Cc1cc(S(=O)(=O)N2CCCc3ccccc32)ccc1-n1cnnn1
cell number change: 10.5% | AC50 [2]: 0.082 µM [rising, partial curve, poor fit]

O=C(COC(=O)c1ccc(O)cc1)Nc1ccc(N2CCCCC2)cc1
cell number change: -1.54% | AC50 [1]: 0.411 µM [rising, full curve, poor fit]

Cc1c(NC(=O)C(C)OC(=O)COc2ccc(C#N)cc2)c(=O)n(-c2ccccc2)n1C (configuration not stated)
cell number change: -2.89% | AC50 [1]: 4.11 µM [falling, full curve, poor fit]

O=C(Cn1nnc(-c2ccccc2)n1)NNC(=O)c1ccc(Br)cc1
cell number change: -72.5% | AC50 [2]: 29.1 µM [falling, single point] | AC50 [1]: 25.9 µM [falling, single point]

COc1ccc(OCCSCc2nnc(NC(=O)Nc3ccc(Cl)cc3)s2)cc1
cell number change: 63.8% | AC50 [2]: 4.11 µM [rising, full curve, poor fit] | AC50 [1]: 6.51 µM [rising, partial curve, poor fit]

C/C(=N/NC(=O)CCCOc1ccc(Cl)cc1Cl)c1ccc(C)o1
cell number change: -33.3% | AC50 [2]: 0.0731 µM [falling, full curve, poor fit]

O=C(CSc1nc(C2CC2)nc2ccccc12)Nc1ccccc1Cl
cell number change: -10.3% | AC50 [1]: 5.8 µM [rising, partial curve]

COc1ccccc1CCNC(=O)C(=O)NCC1OCCN1S(=O)(=O)c1ccc(F)cc1 (configuration not stated)
cell number change: -8.66% | AC50 [2]: 0.58 µM [falling, single point] | AC50 [1]: 20.6 µM [rising, single point]

COc1ccc(CC2SC(N)=NC2=O)cc1 (configuration not stated)
cell number change: 32.8% | AC50 [2]: 25.9 µM [rising, partial curve, poor fit]

CC1(c2ccccc2)NC(=O)N(CC(=O)NCc2ccc3c(c2)OCO3)C1=O (configuration not stated)
cell number change: 27.1% | AC50 [1]: 1.3 µM [rising, full curve]

O=C(NCCCO)c1nnc(Cc2c(F)cccc2Cl)o1
cell number change: -46.5% | AC50 [2]: 20.6 µM [falling, single point] | AC50 [1]: 29.1 µM [falling, single point]
